# In patent publication US20240290636A1, “SUBSTRATE TREATING METHOD, SUBSTRATE TREATING APPARATUS, AND TREATMENT LIQUID” (SCREEN Holdings Co., Ltd., priority 2021, published 2024):
# Some of these results come from one statement about several compounds together.
# Experiment: Vapor pressure of the sublimable substance
# Conditions: normal temperatures (e.g. 5° C. to 35° C.); absolute pressure
# Method: The sublimable substance has a vapor pressure of 0.1 Pa or more and 1.0 Pa or less at normal temperatures. Here, the normal temperatures include a room temperature. The normal temperatures fall within a temperature range of 5° C. or more and 35° C. or less, for example. The normal temperatures fall within a temperature range of 10° C. or more and 30° C. or less, for example. In this specification, the value of vapor pressure is indicated as absolute pressure relative to absolute vacuum.
structure (smiles),measurement,value
ON=C1CCCCC1 [cyclohexanone oxime],vapor pressure at normal temperatures,higher than 1.0 Pa
